Experimental data: patent US20220356525A1, “METHODS OF DETERMINING WHETHER PATIENTS SUFFERING FROM ACUTE MYELOID LEUKEMIA WILL ACHIEVE A RESPONSE TO AN MYC-TARGETING THERAPY” (INSERM (INSTITUT NATIONAL DE LA SANTÉ ET DE LA RECHERCHE …, priority 2019, published 2022)
The name of at least one read-out is uncertain.

System: KG1a, U937 and IMS-M2 cells
Experiment: OTX015 sensitivity with SAH supplementation
Assay type: cell-based, human
Text: We next used metabolism profiling to characterize the effect of folate pathway alteration on global cell metabolism in U937 cells. […] ShRNA-mediated MTHFR depletion induced a similar increase in SAH levels as that observed upon folate withdrawal in AML cell lines U937 and IMS-M2 (data not shown).

Structure (SMILES): Nc1ncnc2c1ncn2[C@@H]1O[C@H](CSCC[C@H](N)C(=O)O)[C@@H](O)[C@H]1O [SAH, S-adenosylhomocysteine]
- effect on OTX015 IC50: increased OTX015 IC50 by a magnitude similar to that measured upon folate starvation
